Assay results taken from patent US7645454 (dated 2010).

Experiments:
[1] = general procedure: Fmoc solid-phase peptide synthesis; Fmoc-PAL-PEG-PS; HBTU (Boc synthesis of 28); conditions: whole synthesis, scale 0.25 mmol
[2] = solid-phase peptide synthesis
[3] = solid-phase peptide synthesis; conditions: whole synthesis, analytical HPLC, LCMS, ESMS, scale of the general procedure 0.25 mmol
[4] = general procedure: Fmoc solid-phase peptide synthesis; NovaSyn TGA resin; HBTU (Boc synthesis of 28); conditions: whole synthesis

Fmoc-NH-Cys(S^tBu)-Ile-Arg-Asp-Lys(ivDde)-Ser-NH2
isolated yield ([1]; from unfunctionalized resin): 61% yield
isolated mass [1]: 157.5 mg

H2N-Cys(S^tBu)-Ala-Asn(Manβ1→4GlcNAcβ1→4GlcNAcβ1)-Ala-Ser-NH2
difficulty met ([2]; late stage modification step): perhaps due to epimerization of cysteine

H2N-Gly-Asp-Ser-Ala-Trp-His-Leu-Gly-Glu-Leu-Val-Trp-Ser-Thr-Gly-S(CH2)2C(O)NH2
final HPLC purity [3]: >95%

H2N-Ser-Leu-Orn-Ala-Asn-Lys-Glu-Thr-Thr-Glu-Arg-Ile-Asn-Gly-Cys-Ala-Asn(Manβ1→4GlcNAcβ1→4GlcNAcβ1)-Ala-Ser-NH2
step yield ([2]; coupling step, based on starting glycopeptide): 78% yield

H2N-Ser-Leu-Orn-Ala-Asn-Lys-Glu-Thr-Thr-Glu-Arg-Ile-Asn-Gly-SEt
isolated mass [4]: 10.3 mg
isolated yield ([4]; from unfunctionalized hydroxymethyl resin, scale of the general procedure 0.25 mmol): 32% yield
difficulty met ([2]; whole synthesis, scale of the general procedure 0.25 mmol): Solid phase synthesis of this peptide met with difficulties that were overcome using a pseudoproline
